Data on two molecules can be found in paper doi:10.1101/2025.11.26.690669.

Sequences of proteins named here, by UniProt entry; tags and fusion partners are left off. A change or cut given only in a name is not applied to a line headed by its entry.
UniProt P61586: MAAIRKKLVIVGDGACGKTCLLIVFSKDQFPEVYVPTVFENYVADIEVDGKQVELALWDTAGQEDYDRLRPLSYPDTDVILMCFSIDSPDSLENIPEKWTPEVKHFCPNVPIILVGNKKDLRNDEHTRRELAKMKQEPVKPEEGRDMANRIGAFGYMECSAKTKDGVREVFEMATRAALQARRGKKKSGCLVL

The target in assay [1] is GST-RhoA^G17A (nucleotide-free RhoA mutant) (UniProt P61586). Briefly: pull-down.
Assay [2] shares this target. Put plainly: pull-down. The source holds these as a separate data set.

Read-outs that look alike come from different tables or passages of the source. These are yes or no findings as the source states them, for the method shown. Binding seen in cells or lysates may run through a third protein. Some entries that bind do so weakly or less than the wild type.

B1: NET1/ARHGEF8 (endogenous, human smooth muscle cells) (protein, UniProt Q7Z628 1-596)
chain: MEPELAAQKQPRPRRRSRRASGLSTEGATGPSADTSGSELDGRCSLRRGSSFTFLTPGPNWDFTLKRKRREKDDDVVSLSSLDLKEPSNKRVRPLARVTSLANLISPVRNGAVRRFGQTIQSFTLRGDHRSPASAQKFSSRSTVPTPAKRRSSALWSEMLDITMKESLTTREIRRQEAIYEMSRGEQDLIEDLKLARKAYHDPMLKLSIMSEEELTHIFGDLDSYIPLHEDLLTRIGEATKPDGTVEQIGHILVSWLPRLNAYRGYCSNQLAAKALLDQKKQDPRVQDFLQRCLESPFSRKLDLWSFLDIPRSRLVKYPLLLKEILKHTPKEHPDVQLLEDAILIIQGVLSDINLKKGESECQYYIDKLEYLDEKQRDPRIEASKVLLCHGELRSKSGHKLYIFLFQDILVLTRPVTRNERHSYQVYRQPIPVQELVLEDLQDGDVRMGGSFRGAFSNSEKAKNIFRIRFHDPSPAQSHTLQANDVFHKQQWFNCIRAAIAPFQSAGSPPELQGLPELHEECEGNHPSARKLTAQRRASTVSSVTQVEVDENAYRCGSGMQMAEDSKSLKTHQTQPGIRRARDKALSGGKRKETLV
Regarding B1, the binding entry in assay [1] and in assay [2] was “binds” each time.

B2: NET1/ARHGEF8 (endogenous, mouse 3T3-L1 fibroblasts) (protein, UniProt Q9Z206 1-595)
chain: MEPEPAAQKQPRPRRRSRRVSMLSEEPAAGLPADTPGPAANERCSLRRGSSFTFLTPGPHWDFTLKRKRREKDDDAVSLSSLDLKEPSNKRVRPLARVTSLANLISPVRNGAVRRFGQTIQSFTLRGDHRSPASAQKSFSRSTVPTPTKRRSSALWSEMLDINMKESLTTREIKRQEAIYELSRGEQDLIEDLKLARKAYHDPMLKLSIMSEEELTHIFGDLDAYIPLHEDLLARIGEATKPDGTVEQIGHILVNWLPGLNAYRGYCSNQLAAKALLDQKKQDPRVQDFLQRCLESPFSRKLDLWSFLDIPRSRLVKYPLLLKEILRHTPKDHRDVQLLEEAILIIQGVLSDINLKKGESECQYYINKLEYLDEKQKDPRIEASKVLLCHGELKNKSGHKLYIFLFQDILVLTRPVTRNERHLYQVYRQPIPVQELVLEDLQDGDVRMGGSFRGAFGNSDKAKNIFRVRFQDPSPGHSHTLQANDVFHKQQWFNCIRAAIAPFQRAASPLELQGLPDLHEECEENNPSAGNLRAQRRSCVVPGVMQIDEESALDCGSSVQTVEDTRNMKAQRPQPGLRRARDKAQSGGKKKETLV
In the case of B2, in assay [1], the binding result is reported as “binds”.
